# At least one structure is not confirmed: it was looked up by name or label, or the drawing left a doubt.
# What was measured:
# [1] = tested on: hematopoietic stem cells CD41:GFP accumulated in the CHT; assay type: in vivo; conditions: reference molecule, 10 μM, FIG. 3
# Description: A method for determining whether a molecule is capable of treating cancer in the pre-metastatic state has been described in international application WO 2011/007259. This method consists in isolating molecules capable of inhibiting the emergence of hematopoietic stem cells from the floor of the aorta without cell division, but by endothelial-to-hematopoietic transition. This emergence involves the loss of cell polarity of emerging cells, the loss of cellular junctions with these neighboring cells and the acquisition of migratory properties. This model is used because it mimics each stage of the epithelial-mesenchymal transition, the first stage of cancer metastasis. […]
# In order to evaluate the inhibition of the endothelial-to-hematopoietic transition, transgenic CD41:GFP (green fluorescent protein) embryos are used. HSCs express GFP under the control of the CD41 promoter, which allows them to be monitored in vivo under a fluorescence microscope. The read-out is the number of hematopoietic stem cells CD41:GFP accumulated in the AGM (mimicking the initiation of the metastatic process) and/or in the CHT of the zebrafish embryo (mimicking the progression of the metastatic process). […]
# The embryos are imaged with a plate reader after being anesthetized with 0.16% tricaine (ethyl-3-aminobenzoate). A quantification of the number of fluorescent cells (CD41:GFP) accumulated in the CHT is carried out. […]
# 4T1 cells = assay: 4T1 cell migration test (scratch test); assay type: cell-based, mouse; conditions: same doses (10 nM to 100 μM), FIG. 8
# Procedure: The cell migration assays on the 4T1 cell line are carried out in vitro in 12-well plates on the 4T1 cell line. The cells are maintained in DMEM culture medium supplemented with 10% calf serum (FCS) and incubated at 37° C. and 5% CO2. The cell monolayer is injured with a 10 μ pipette tip. The medium is aspirated and replaced by a medium containing the compounds to be tested at the concentrations described. The wells are imaged using a microscope and the injured surface is repaired at the indicated times to highlight the cell anti-migratory power of the tested chemical compounds. The average of the measurements obtained is compared with the control wells: (average value of the compounds treated/average value of the controls)*100=% of the average value.
# In order to validate the anti-migratory potential of althiazide, we carry out a “scratch test” on 4T1 cells in culture according to the cell migration test protocol on the 4T1 cell line described in the Materials and Methods section. This test is used to evaluate the migratory power of a chemical compound on cells in culture. […]
# The area of the injured area is measured for each well and the percentage of migration is calculated under each condition.
compound,measurement,setting,value
"Cc1nc(Nc2ncc(C(=O)Nc3c(C)cccc3Cl)s2)cc(N2CCN(CCO)CC2)n1 [dasatinib, reference compound]",effect on HSCs accumulated in CHT compared with althiazide,[1],identical
same,effect on cell migration compared with althiazide,4T1 cells,more effective

# From US20230137849A1, “USE OF A COMPOUND OF THE DIURETICS CLASS FOR TREATING CANCER” (AZELEAD, priority 2017, published 2023)
